Our source for the binding values is PMC8981113.

Protein sequences, listed by entry. Tags and fused reporters are not part of them.
UniProt Q16531: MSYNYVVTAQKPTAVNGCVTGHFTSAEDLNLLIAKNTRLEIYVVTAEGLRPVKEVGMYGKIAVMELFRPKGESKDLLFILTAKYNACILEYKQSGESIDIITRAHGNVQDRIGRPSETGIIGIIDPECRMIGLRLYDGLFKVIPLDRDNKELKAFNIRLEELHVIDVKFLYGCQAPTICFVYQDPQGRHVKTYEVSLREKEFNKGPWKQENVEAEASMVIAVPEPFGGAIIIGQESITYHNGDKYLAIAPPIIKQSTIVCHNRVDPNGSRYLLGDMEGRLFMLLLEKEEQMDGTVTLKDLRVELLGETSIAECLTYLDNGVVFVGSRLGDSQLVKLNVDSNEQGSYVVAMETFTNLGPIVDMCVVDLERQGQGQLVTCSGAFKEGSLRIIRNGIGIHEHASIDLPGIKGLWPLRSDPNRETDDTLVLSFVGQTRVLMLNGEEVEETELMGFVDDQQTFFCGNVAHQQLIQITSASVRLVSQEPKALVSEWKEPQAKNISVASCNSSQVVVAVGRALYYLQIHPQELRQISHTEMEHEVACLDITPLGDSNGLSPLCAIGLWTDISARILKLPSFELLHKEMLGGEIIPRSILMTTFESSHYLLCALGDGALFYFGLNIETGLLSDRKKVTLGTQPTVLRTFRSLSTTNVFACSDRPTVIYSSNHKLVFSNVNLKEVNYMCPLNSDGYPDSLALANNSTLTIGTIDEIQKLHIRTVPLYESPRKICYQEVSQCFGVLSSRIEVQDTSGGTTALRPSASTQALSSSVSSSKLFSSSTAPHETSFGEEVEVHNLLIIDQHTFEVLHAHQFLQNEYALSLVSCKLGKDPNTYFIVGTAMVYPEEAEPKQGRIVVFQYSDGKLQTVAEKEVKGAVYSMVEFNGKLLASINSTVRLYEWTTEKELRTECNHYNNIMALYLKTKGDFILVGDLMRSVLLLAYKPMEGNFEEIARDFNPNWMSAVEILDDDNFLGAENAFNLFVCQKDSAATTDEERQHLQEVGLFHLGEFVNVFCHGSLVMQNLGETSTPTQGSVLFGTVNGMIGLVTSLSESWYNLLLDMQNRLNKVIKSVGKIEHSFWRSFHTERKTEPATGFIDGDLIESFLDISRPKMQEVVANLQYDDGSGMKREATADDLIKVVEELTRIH
UniProt Q14999: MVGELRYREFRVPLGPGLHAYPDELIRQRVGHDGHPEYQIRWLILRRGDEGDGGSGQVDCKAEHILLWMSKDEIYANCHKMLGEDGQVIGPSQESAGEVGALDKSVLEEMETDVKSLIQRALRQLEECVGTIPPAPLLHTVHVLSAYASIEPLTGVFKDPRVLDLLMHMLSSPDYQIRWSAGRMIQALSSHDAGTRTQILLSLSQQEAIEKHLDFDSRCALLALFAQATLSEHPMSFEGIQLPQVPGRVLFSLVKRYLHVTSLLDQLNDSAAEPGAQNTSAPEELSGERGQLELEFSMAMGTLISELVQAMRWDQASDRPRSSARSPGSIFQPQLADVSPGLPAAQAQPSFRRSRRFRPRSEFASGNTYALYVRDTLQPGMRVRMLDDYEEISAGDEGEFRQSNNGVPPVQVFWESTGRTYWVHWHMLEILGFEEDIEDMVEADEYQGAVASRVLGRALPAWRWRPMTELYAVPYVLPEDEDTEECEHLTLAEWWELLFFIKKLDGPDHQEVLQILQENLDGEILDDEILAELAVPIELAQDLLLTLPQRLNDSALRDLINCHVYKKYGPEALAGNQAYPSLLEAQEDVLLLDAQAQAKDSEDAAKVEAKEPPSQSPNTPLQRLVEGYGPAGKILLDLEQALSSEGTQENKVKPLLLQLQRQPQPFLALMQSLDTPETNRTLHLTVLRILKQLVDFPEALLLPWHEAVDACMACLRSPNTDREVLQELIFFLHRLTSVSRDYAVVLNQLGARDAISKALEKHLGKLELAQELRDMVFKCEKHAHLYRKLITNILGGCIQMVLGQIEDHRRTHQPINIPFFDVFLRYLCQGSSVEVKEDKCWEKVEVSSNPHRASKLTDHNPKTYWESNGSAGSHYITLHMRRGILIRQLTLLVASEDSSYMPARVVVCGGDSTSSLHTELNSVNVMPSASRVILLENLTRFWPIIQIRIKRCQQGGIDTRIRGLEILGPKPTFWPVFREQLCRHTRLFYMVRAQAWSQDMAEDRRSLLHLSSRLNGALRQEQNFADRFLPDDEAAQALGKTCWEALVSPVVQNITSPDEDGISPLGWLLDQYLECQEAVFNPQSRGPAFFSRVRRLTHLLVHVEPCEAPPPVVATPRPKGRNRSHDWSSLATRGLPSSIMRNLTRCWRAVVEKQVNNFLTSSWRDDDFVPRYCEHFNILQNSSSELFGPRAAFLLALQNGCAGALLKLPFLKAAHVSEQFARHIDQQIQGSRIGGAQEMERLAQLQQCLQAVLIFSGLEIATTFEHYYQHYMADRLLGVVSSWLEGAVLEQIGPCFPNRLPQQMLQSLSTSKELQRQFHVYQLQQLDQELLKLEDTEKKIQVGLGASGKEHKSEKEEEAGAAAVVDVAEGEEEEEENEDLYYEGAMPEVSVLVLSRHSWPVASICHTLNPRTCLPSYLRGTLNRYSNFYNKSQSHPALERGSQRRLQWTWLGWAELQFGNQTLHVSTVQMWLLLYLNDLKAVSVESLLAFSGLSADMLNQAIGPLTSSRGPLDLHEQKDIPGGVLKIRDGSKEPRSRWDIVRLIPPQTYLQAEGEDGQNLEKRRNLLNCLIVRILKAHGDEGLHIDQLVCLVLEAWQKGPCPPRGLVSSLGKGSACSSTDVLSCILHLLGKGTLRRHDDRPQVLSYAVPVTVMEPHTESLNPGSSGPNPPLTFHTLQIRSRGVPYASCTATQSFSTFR

Where two headings read alike, the source gives them in different places. These are yes or no findings as the source states them, for the method shown. In cells and extracts the contact can be indirect. Some entries that bind do so weakly or less than the wild type. Sequences can lack the tags named with a protein.

Common to all, as to assay: co-IP; anti-HA magnetic beads on lysates of P3HR-1 ZHT/RHT cells with dox-induced HA-tagged bait (BNRF1, BNRF1 mutants or SMC6); bortezomib added; in some panels cells induced for lytic replication; lysis buffer 1% NP40, 150 mM Tris, 300 mM NaCl, 4°C overnight; immunoblot
(In western blotting, separated proteins are transferred to a membrane and probed.)

The target in experiment [1] is T1, HA-epitope tagged BNRF1 (EBV major tegument protein), wild type (Epstein-Barr virus) (UniProt P03179).
T1 sequence: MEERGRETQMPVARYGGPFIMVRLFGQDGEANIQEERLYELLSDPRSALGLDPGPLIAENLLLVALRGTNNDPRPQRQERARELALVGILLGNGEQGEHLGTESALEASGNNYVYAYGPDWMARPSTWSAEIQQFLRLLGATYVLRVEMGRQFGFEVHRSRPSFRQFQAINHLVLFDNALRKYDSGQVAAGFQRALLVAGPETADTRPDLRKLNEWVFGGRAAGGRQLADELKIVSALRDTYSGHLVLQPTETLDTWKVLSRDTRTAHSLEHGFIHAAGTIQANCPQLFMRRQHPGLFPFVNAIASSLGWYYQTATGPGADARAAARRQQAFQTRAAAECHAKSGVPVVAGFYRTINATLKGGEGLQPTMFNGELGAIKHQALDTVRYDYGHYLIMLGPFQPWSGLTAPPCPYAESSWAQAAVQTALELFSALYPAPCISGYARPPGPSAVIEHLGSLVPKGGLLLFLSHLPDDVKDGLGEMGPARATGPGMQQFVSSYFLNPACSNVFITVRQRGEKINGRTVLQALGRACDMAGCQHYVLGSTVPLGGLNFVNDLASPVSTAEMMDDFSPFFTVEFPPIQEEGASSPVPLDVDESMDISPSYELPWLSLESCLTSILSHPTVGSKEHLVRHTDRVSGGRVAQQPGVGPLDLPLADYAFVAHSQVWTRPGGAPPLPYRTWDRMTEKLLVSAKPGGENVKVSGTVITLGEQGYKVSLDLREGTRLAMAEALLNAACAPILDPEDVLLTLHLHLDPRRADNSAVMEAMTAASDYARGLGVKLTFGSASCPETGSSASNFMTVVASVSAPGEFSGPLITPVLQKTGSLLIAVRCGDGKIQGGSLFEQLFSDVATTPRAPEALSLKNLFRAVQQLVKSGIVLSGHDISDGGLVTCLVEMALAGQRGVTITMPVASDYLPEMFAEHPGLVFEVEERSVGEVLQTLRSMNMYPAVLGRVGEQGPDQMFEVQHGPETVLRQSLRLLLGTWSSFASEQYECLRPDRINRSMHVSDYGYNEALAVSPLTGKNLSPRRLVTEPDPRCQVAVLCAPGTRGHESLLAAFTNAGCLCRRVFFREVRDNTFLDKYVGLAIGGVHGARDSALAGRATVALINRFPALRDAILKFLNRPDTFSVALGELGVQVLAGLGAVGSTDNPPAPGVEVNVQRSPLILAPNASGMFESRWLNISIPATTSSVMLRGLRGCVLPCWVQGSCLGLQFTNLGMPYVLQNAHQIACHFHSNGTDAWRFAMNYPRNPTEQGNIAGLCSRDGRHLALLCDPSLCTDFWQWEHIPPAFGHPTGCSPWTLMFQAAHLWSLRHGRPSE

Experiment [2] concerns the target T1, HA-epitope tagged BNRF1 (EBV major tegument protein), wild type (Epstein-Barr virus). The source holds these as a separate data set.
For another experiment, the target named is T2, HA-tagged SMC6 (human) (UniProt Q96SB8).
T2 sequence: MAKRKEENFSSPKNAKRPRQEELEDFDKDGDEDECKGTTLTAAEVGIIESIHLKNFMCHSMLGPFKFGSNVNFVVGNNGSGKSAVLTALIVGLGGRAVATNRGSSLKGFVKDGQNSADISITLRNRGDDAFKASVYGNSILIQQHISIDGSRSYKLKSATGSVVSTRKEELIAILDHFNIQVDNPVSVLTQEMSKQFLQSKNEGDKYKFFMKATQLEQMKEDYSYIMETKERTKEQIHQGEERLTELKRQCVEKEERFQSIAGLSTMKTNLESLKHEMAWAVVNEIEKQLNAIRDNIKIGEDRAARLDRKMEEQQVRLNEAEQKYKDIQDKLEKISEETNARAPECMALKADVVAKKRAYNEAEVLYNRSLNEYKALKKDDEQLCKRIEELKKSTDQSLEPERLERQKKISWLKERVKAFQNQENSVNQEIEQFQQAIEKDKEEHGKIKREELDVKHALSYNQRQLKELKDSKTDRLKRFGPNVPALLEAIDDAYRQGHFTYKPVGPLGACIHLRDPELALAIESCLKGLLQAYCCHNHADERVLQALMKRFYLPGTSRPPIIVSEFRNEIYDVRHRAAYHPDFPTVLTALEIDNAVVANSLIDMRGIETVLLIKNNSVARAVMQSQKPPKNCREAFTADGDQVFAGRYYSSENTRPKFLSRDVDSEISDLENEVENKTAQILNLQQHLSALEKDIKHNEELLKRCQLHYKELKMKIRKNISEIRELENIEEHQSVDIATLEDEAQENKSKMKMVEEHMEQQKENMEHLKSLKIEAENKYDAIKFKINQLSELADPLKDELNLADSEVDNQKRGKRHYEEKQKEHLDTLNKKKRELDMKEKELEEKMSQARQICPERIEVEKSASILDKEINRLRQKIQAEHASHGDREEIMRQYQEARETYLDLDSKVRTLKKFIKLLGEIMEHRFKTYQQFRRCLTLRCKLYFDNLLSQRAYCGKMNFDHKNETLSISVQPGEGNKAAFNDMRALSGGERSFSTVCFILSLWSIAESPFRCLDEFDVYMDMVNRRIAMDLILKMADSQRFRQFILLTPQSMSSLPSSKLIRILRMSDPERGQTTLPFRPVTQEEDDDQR

On to DDB1 (from UniProt Q16531 1-1140), for which the binding result in experiment [1] is given as “no binding”.

As to Cullin-7 (from UniProt Q14999 1-1698), in experiment [1], the binding entry is given as “binds”.

B1: endogenous SMC6 (protein, UniProt Q96SB8 1-1091)
chain: MAKRKEENFSSPKNAKRPRQEELEDFDKDGDEDECKGTTLTAAEVGIIESIHLKNFMCHSMLGPFKFGSNVNFVVGNNGSGKSAVLTALIVGLGGRAVATNRGSSLKGFVKDGQNSADISITLRNRGDDAFKASVYGNSILIQQHISIDGSRSYKLKSATGSVVSTRKEELIAILDHFNIQVDNPVSVLTQEMSKQFLQSKNEGDKYKFFMKATQLEQMKEDYSYIMETKERTKEQIHQGEERLTELKRQCVEKEERFQSIAGLSTMKTNLESLKHEMAWAVVNEIEKQLNAIRDNIKIGEDRAARLDRKMEEQQVRLNEAEQKYKDIQDKLEKISEETNARAPECMALKADVVAKKRAYNEAEVLYNRSLNEYKALKKDDEQLCKRIEELKKSTDQSLEPERLERQKKISWLKERVKAFQNQENSVNQEIEQFQQAIEKDKEEHGKIKREELDVKHALSYNQRQLKELKDSKTDRLKRFGPNVPALLEAIDDAYRQGHFTYKPVGPLGACIHLRDPELALAIESCLKGLLQAYCCHNHADERVLQALMKRFYLPGTSRPPIIVSEFRNEIYDVRHRAAYHPDFPTVLTALEIDNAVVANSLIDMRGIETVLLIKNNSVARAVMQSQKPPKNCREAFTADGDQVFAGRYYSSENTRPKFLSRDVDSEISDLENEVENKTAQILNLQQHLSALEKDIKHNEELLKRCQLHYKELKMKIRKNISEIRELENIEEHQSVDIATLEDEAQENKSKMKMVEEHMEQQKENMEHLKSLKIEAENKYDAIKFKINQLSELADPLKDELNLADSEVDNQKRGKRHYEEKQKEHLDTLNKKKRELDMKEKELEEKMSQARQICPERIEVEKSASILDKEINRLRQKIQAEHASHGDREEIMRQYQEARETYLDLDSKVRTLKKFIKLLGEIMEHRFKTYQQFRRCLTLRCKLYFDNLLSQRAYCGKMNFDHKNETLSISVQPGEGNKAAFNDMRALSGGERSFSTVCFILSLWSIAESPFRCLDEFDVYMDMVNRRIAMDLILKMADSQRFRQFILLTPQSMSSLPSSKLIRILRMSDPERGQTTLPFRPVTQEEDDDQR
Regarding B1, the binding result in experiment [2] was “binds”.

B2: CAPNS1 (calpain regulatory subunit) (protein, UniProt P04632 1-268)
chain: MFLVNSFLKGGGGGGGGGGGLGGGLGNVLGGLISGAGGGGGGGGGGGGGGGGGGGGTAMRILGGVISAISEAAAQYNPEPPPPRTHYSNIEANESEEVRQFRRLFAQLAGDDMEVSATELMNILNKVVTRHPDLKTDGFGIDTCRSMVAVMDSDTTGKLGFEEFKYLWNNIKRWQAIYKQFDTDRSGTICSSELPGAFEAAGFHLNEHLYNMIIRRYSDESGNMDFDNFISCLVRLDAMFRAFKSLDKDGTGQIQVNIQEWLQLTMYS
Regarding B2, the binding entry (in experiment [2]; in the experiment with HA-tagged SMC6 (human)) was “binds” in each case.
